The target of assay [1] is T1, peptide-15 of SE36 (Plasmodium falciparum (Honduras-1)).
T1 sequence (peptide): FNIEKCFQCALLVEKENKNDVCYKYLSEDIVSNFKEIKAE
The experiment in a line: ELISA; SE36, SE36-1 to -4 or SE36 peptides adsorbed to the plate; human serum (NHS or HTS, 1:2000 or at the indicated dilutions) added, 2 h, room temperature; bound VTN detected by anti-VTN antibody; only the target purified. Background: An ELISA detects its analyte on a solid surface through an enzyme-linked reagent.

Assay [2] has the same target. Nature of the assay: ELISA; SE36, SE36-1 to -4 (1 μg/mL) or SE36 peptides (0.3 μM) adsorbed to the plate in carbonate buffer pH 9.6; purified or recombinant human protein added (VTN 2 μg/mL or at the indicated concentrations) in PBS-0.05% Tween 20 with 5% skim milk, 2 h, room temperature; detected by antibody; both purified.

Data on one substance can be found in PMC5864917 (2018).

Results are given in words; binding and its absence hold for the method and conditions named. A result given as binding can be weak or reduced; the word gives no strength.

As for Vitronectin (VTN), human, the binding result in assay [1] and in assay [2] was “binds” each time.
